PubChem BioAssay AID1259308 – NCATS, 2017

Purpose: 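Candidate targets for better recombinant protein yield in mammalian cells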 (primary screen)
Cell system: human HEK293 embryonic kidney cells stably expressing firefly luciferase (HEK-CMV-Luc2-Hygro)
Knock-down reagent: single siRNA against human genes, 0.8 pmol siRNA per well
Time to read-out: 72 h
Measured: 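Luciferase light (ONE-Glo) measured on one replicate plate set and viability (CellTiter-Glo) on the other, scaled to a negative control siRNA, with robust z-scores and luciferase per cell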
Direction: total luciferase, z-score: higher = more reporter protein produced
Hit rule: 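An siRNA counts as active if its total luciferase robust z-score exceeds 3; genes with two or more such siRNAs out of three were retested with fresh siRNAs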
Meaning of the calls: active = raised luciferase; inactive = no rise
The deposit covers about 59,000 reagents; this is an unselected part. Of all reagents, about 1,510 (2.6%) are marked active. 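Calls use total luciferase alone and ignore viability, so some active siRNAs may act by altering cell number.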 Reagents against one gene are numbered here. Not all columns of the deposit are shown.

For POLR3G (RNA polymerase III subunit G) #1, how do the results read?
total luciferase, z-score: 0.802; outcome: inactive

For POLR3G (RNA polymerase III subunit G) #2, what was measured?
total luciferase, z-score: 0.874; outcome: inactive

What did the screen give for POLR3G (RNA polymerase III subunit G) #3?
total luciferase, z-score: -1.84; outcome: inactive

Which result is listed for TACC3 (transforming acidic coiled-coil containing protein 3) #1?
total luciferase, z-score: 5.18; outcome: active

What did the screen give for TACC3 (transforming acidic coiled-coil containing protein 3) #2?
total luciferase, z-score: -1.54; outcome: inactive

What is on record for TACC3 (transforming acidic coiled-coil containing protein 3) #3?
total luciferase, z-score: 0.659; outcome: inactive

With LRIT3 (leucine rich repeat, Ig-like and transmembrane domains 3) #1, what does the deposit list?
total luciferase, z-score: -0.89; outcome: inactive

How did the screen score LRIT3 (leucine rich repeat, Ig-like and transmembrane domains 3) #2?
total luciferase, z-score: 0.133; outcome: inactive

How did the screen score LRIT3 (leucine rich repeat, Ig-like and transmembrane domains 3) #3?
total luciferase, z-score: 0.0929; outcome: inactive

With LYRM7 (LYR motif containing 7) #1, what was measured?
total luciferase, z-score: -0.33; outcome: inactive

With LYRM7 (LYR motif containing 7) #2, how do the results read?
total luciferase, z-score: -0.208; outcome: inactive

Which result is listed for LYRM7 (LYR motif containing 7) #3?
total luciferase, z-score: 0.133; outcome: inactive

Records listed above with an active call (1):
TACC3 (transforming acidic coiled-coil containing protein 3) #1 → total luciferase, z-score: 5.18; outcome: active

Continued.
For SLC66A3 #1, what was measured?
total luciferase, z-score: 1.26; outcome: inactive

What is on record for SLC66A3 #2?
total luciferase, z-score: -0.0181; outcome: inactive

For SLC66A3 #3, what was measured?
total luciferase, z-score: -0.0166; outcome: inactive

What did the screen give for EME1 (essential meiotic structure-specific endonuclease 1) #1?
total luciferase, z-score: 0.645; outcome: inactive

How did the screen score EME1 (essential meiotic structure-specific endonuclease 1) #2?
total luciferase, z-score: 2.16; outcome: inactive

What is on record for EME1 (essential meiotic structure-specific endonuclease 1) #3?
total luciferase, z-score: -0.365; outcome: inactive

With MRPS16 (mitochondrial ribosomal protein S16) #1, what was measured?
total luciferase, z-score: 0.00397; outcome: inactive

What is on record for MRPS16 (mitochondrial ribosomal protein S16) #2?
total luciferase, z-score: -0.241; outcome: inactive

With MRPS16 (mitochondrial ribosomal protein S16) #3, what does the deposit list?
total luciferase, z-score: -0.178; outcome: inactive
